Assay results taken from paper doi:10.1101/2022.11.16.516846.
Results are given in words; binding and its absence hold for the method and conditions named. Binding seen in cells or lysates may run through a third protein. Some entries that bind do so weakly or less than the wild type. Tags and fused reporters may be left off the sequences shown.

By UniProt entry, the sequences of proteins in these tests, tags left out.
UniProt Q7JW27: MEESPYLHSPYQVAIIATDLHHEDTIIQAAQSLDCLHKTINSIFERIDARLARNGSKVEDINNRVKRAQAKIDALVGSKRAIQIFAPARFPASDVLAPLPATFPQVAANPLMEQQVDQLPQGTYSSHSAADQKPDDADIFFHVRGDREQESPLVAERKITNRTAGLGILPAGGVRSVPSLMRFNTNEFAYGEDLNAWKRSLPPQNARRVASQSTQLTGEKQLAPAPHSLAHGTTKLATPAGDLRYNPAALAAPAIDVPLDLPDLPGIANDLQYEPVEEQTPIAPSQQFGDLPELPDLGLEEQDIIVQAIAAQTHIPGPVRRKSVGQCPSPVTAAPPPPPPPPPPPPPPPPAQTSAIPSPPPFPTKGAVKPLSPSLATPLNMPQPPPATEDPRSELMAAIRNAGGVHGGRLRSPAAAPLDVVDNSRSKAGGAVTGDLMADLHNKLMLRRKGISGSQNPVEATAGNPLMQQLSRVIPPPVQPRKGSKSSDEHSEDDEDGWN

Biological target: GST-Wash full length (Drosophila) (UniProt Q7JW27)
Experiment: pull-down

B1: CCDC53 (GST pulldown with Wash) (protein, UniProt Q9VLT8 1-176)
chain: MDATAAITGNVDKTQIPPLNQKRILAFVNHFLVSTCTFLNEFALGCETKFVEMERQLQKTEAALIILEAKLASIPTEHHVATEATEAPAISNQQRNEEASMVDTTEPPTTENPTEPELPPESVGVRACEDQRYRKFFKMVQVGVPAPAVKQKMQSEGLEPRILDTPDLILADGQRE
binding: binds
